Test results from the supplement of paper PMC11732987, “Enantioselective OTUD7B fragment discovery through chemoproteomics screening and high-throughput optimisation” (Communications Chemistry, 2025).
This is one part of the list. The data scatter; read single values as rough.

Amino acid sequences for entries named in this document (tags omitted). A change or cut given only in a name is not applied to a line headed by its entry. Residues count along the entry.
UniProt Q709C8: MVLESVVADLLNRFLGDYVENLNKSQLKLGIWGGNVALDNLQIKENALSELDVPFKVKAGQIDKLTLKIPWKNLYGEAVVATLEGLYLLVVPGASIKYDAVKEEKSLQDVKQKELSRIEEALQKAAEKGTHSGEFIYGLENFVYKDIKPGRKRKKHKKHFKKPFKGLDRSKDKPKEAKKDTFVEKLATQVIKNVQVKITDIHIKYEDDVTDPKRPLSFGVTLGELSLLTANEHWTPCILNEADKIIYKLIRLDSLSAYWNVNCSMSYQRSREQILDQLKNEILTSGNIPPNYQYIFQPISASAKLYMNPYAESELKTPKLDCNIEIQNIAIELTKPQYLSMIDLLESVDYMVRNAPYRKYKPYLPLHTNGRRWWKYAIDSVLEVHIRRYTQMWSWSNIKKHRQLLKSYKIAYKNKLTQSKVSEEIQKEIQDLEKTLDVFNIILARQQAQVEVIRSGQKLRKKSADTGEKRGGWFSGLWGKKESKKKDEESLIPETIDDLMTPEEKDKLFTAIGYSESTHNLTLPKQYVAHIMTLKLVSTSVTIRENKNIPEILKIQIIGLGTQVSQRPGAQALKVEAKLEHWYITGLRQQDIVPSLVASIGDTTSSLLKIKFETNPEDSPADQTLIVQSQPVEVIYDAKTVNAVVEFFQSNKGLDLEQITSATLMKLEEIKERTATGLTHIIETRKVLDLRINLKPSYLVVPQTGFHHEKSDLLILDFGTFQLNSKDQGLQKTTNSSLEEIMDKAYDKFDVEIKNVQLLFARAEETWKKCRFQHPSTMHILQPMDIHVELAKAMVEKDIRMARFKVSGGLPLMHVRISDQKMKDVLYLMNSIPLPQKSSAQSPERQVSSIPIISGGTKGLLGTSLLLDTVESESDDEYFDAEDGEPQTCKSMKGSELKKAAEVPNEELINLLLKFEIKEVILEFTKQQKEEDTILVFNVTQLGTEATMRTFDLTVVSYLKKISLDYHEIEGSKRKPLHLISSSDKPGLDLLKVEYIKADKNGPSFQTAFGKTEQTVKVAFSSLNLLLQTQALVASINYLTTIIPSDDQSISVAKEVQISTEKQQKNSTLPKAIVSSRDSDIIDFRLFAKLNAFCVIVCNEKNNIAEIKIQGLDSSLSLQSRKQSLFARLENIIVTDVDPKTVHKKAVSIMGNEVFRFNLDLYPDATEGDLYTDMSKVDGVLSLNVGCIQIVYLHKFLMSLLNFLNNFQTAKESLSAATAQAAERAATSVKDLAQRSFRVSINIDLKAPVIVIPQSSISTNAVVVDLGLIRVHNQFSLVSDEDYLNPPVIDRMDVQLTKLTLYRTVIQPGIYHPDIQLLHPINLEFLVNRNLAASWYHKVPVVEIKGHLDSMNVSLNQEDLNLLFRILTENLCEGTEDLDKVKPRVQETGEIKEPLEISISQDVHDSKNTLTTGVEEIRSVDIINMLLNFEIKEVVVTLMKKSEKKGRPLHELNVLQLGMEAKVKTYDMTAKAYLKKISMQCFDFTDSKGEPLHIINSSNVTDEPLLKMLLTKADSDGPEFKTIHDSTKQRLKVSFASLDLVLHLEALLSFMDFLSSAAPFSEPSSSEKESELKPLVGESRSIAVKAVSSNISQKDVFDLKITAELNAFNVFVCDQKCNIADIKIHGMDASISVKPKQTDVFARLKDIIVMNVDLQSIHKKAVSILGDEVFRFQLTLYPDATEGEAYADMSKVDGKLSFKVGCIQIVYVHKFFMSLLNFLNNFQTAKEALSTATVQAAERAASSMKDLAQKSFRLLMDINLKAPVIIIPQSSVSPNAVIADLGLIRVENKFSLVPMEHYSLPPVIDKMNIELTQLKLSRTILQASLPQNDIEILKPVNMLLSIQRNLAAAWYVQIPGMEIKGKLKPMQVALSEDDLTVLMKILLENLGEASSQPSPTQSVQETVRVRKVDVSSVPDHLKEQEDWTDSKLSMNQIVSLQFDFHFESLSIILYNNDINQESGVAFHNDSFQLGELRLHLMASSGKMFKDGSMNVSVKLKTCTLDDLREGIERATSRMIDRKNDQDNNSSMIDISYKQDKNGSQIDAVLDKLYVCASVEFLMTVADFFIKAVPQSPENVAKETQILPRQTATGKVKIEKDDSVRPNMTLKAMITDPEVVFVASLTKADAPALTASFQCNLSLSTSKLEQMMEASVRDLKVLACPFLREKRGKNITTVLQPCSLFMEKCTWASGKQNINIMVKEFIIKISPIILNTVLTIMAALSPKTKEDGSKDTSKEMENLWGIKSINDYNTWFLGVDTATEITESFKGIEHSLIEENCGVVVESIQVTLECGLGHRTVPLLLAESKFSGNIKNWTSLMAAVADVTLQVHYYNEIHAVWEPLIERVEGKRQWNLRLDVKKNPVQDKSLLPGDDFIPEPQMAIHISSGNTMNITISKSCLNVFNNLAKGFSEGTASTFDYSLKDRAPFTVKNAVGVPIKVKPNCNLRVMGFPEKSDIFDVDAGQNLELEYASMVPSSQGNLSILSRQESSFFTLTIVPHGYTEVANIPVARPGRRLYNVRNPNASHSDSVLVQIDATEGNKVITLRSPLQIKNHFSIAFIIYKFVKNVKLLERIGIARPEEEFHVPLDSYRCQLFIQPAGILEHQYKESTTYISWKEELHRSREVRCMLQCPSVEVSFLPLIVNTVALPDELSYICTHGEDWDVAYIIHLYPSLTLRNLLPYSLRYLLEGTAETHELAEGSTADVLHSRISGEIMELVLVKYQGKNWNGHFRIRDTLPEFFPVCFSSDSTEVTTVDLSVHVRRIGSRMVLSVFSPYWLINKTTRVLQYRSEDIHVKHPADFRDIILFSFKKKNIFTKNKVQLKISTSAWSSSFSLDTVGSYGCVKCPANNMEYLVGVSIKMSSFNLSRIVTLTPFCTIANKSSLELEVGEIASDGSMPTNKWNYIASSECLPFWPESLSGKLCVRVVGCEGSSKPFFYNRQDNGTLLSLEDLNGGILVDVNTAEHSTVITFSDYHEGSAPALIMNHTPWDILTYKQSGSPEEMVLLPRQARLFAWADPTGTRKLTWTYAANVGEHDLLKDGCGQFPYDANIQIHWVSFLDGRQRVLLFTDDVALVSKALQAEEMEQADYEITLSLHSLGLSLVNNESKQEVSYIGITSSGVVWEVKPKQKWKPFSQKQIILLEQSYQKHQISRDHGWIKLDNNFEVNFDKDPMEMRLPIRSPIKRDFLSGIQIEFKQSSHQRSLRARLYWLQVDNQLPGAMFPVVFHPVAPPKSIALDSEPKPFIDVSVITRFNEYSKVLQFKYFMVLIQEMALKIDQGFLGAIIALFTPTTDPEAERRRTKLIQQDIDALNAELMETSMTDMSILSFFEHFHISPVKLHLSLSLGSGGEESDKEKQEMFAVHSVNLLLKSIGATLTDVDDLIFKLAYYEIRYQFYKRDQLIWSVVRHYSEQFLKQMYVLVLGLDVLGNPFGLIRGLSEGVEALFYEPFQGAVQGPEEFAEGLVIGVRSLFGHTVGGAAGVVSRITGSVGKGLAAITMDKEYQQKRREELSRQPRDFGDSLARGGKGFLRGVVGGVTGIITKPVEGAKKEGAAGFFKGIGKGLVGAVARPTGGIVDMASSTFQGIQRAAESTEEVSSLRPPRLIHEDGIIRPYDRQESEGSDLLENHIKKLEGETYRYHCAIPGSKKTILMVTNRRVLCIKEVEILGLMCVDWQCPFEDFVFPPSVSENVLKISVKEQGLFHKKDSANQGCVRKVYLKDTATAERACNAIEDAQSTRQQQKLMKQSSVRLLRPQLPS
UniProt Q14146: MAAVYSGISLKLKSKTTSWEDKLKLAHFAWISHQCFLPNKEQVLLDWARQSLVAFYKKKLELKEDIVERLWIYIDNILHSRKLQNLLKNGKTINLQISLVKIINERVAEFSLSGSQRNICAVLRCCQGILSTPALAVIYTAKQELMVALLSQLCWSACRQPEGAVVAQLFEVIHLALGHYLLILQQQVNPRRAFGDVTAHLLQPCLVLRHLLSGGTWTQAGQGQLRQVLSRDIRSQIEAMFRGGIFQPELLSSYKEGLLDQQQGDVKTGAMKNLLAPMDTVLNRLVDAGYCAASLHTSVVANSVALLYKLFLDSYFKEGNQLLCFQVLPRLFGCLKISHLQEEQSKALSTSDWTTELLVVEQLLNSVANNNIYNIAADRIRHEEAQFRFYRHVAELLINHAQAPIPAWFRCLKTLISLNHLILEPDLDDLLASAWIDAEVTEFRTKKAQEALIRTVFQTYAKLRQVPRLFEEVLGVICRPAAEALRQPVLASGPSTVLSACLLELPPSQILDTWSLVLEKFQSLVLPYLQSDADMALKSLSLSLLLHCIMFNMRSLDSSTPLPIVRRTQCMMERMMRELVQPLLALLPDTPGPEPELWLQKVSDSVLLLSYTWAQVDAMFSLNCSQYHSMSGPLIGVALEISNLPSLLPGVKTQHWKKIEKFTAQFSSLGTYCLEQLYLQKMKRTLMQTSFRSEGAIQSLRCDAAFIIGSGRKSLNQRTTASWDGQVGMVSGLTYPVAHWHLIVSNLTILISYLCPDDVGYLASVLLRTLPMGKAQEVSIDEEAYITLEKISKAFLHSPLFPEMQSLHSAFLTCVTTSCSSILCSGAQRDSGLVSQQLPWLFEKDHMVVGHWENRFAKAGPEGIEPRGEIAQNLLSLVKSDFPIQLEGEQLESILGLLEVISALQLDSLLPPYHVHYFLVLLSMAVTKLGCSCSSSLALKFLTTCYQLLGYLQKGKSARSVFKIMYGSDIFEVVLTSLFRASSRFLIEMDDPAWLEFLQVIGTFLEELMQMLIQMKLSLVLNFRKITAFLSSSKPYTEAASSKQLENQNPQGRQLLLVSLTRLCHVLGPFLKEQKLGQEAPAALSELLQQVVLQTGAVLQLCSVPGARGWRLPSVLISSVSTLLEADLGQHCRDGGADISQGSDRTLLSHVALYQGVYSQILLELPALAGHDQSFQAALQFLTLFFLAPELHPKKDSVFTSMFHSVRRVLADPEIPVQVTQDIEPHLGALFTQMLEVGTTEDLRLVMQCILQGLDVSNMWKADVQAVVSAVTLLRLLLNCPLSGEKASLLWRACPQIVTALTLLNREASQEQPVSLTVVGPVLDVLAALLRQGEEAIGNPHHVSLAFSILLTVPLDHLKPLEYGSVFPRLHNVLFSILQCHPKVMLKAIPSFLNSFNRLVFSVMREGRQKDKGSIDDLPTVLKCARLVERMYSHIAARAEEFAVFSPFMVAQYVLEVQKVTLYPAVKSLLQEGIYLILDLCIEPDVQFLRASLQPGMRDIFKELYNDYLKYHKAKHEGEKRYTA
UniProt O95292, whole entry, looked up: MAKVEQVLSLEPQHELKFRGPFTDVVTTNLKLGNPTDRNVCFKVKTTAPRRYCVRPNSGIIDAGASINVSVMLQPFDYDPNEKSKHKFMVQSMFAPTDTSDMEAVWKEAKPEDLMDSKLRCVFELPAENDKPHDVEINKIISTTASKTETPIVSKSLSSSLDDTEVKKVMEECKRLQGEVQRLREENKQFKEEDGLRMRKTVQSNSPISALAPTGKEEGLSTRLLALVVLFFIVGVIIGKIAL
UniProt P62068: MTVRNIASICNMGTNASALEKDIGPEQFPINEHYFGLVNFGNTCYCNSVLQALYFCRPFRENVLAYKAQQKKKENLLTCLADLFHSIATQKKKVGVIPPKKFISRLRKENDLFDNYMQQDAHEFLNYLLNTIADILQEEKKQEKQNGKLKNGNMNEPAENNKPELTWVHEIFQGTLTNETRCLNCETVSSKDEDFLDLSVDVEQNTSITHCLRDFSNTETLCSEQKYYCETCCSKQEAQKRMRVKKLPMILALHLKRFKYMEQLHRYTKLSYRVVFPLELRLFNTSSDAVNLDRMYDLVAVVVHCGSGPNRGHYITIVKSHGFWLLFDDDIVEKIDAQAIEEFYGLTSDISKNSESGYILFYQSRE
UniProt Q9UPT9: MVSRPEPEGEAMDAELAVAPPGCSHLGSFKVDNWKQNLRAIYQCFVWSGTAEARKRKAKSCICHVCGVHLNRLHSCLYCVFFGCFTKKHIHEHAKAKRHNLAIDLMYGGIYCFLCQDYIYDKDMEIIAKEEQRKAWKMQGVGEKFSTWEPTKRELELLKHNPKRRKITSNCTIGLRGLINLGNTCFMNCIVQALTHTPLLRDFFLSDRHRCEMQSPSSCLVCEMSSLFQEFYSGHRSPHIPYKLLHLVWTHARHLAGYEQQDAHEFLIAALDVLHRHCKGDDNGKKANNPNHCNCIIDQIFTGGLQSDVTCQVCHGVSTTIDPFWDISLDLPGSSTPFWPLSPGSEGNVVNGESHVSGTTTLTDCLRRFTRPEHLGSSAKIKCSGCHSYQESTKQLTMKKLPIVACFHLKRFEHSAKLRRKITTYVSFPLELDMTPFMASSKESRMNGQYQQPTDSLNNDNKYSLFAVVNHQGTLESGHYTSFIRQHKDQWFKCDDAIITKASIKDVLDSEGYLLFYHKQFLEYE
UniProt O94763, 414-435: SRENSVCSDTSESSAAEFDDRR

compound: ClCC(=O)N[C@H]1CCCc2ccccc12; assay: log2 mean competition ratio of IA-DTB cysteine labelling (DMSO/compound) (log2 ratio); higher = stronger cysteine engagement by compound; conditions: 200 µM; treatment time: 4 h; cell line lysate: HEK293T
Method: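 IA-DTB competitive cysteine chemoproteomics in HEK293T RIPA lysate. Lysates were treated with compound 29 or 30 at 50 or 200 µM for 4 h, then IA-DTB (500 µM, 1 h), trypsin-digested, NeutrAvidin-enriched and analysed by diaPASEF. Competition ratio = intensity DMSO / intensity compound (n=4 treated, n=64 DMSO); binding: mean log2 CR ≥ 1 and p ≤ 0.05 plus QC filters. Target is the cysteine site.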

Target	log2 mean competition ratio
VPS13C C2184 (UniProt Q709C8)	-0.226
UBR5 C1291 (UniProt O95071)	-0.496
URB2 C702 (UniProt Q14146)	0.0658
VAPB C173 (UniProt O95292)	-0.133
USP9X C864 (UniProt Q93008)	-0.086
USP9X C1237 (UniProt Q93008)	0.255
VPS18 C421 (UniProt Q9P253)	0.18
USP46 C222 (UniProt P62068)	-0.373
USP53 C380	-0.277
USP22 C171 (UniProt Q9UPT9)	0.138
URI1 C420 (UniProt O94763)	-0.115

Some of the entries so far, bar-delimited.
Target | log2 mean competition ratio
VPS18 C421 (UniProt Q9P253) | 0.18
USP46 C222 (UniProt P62068) | -0.373
